In this data set the target is recombinant PARP-1 (non-automodified) (UniProt P09874). Briefly: EMSA. The settings on record: 100 ng PARP-1, 100 ng DNA, 1 ug poly(dIdC), 5' biotin on both ends (streptavidin-alkaline phosphatase conjugated), 50 mM Tris-HCl pH 7.5, 250 mM NaCl, 6.25 mM MgCl2, 2.5 mM EDTA, 2.5 mM DTT, 10% glycerol, 37 C 30 min, 1% agarose gel in 1x TBE, commercial protein, label: biotin, probe letters rebuilt from the primers and the genome. Background: Mobility shift assays separate free from complexed probe on a gel.

Protein sequences, listed by entry. Tags and fused reporters are not part of them. Residues count along the entry.
UniProt P09874, 2-1014: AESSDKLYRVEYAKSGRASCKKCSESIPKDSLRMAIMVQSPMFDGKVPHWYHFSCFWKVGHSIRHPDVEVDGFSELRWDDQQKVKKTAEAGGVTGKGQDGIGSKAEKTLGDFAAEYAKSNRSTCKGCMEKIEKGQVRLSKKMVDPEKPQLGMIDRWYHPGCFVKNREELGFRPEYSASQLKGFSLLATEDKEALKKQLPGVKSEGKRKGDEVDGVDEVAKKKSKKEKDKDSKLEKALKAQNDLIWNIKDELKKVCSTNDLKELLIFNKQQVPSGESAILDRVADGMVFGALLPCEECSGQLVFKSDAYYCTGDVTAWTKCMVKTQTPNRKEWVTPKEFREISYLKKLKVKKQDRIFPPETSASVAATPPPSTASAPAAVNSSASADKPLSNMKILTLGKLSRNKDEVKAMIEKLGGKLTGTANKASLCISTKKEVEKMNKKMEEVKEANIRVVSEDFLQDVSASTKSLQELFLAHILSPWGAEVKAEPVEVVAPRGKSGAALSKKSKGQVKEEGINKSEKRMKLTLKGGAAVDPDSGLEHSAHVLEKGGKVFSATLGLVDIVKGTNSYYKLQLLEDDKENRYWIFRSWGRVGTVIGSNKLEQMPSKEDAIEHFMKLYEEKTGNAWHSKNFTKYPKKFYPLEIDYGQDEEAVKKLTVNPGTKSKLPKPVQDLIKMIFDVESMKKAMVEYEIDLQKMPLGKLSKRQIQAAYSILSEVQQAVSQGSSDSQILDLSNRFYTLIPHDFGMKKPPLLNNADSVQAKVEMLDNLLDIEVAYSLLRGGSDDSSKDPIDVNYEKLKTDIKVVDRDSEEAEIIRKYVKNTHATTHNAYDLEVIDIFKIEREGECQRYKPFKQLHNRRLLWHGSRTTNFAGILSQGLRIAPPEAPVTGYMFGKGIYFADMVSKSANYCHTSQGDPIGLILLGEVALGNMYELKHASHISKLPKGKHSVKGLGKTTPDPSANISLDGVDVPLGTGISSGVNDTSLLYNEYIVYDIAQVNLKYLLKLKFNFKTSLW

The text below walks through data of PMC3608566.

Construct, isoform or probe ends are uncertain for at least one entry.

“ACAGAGCTGCGAGCCTTGCCCGGGACCGGGCGCAGATTACACTCACCGTCACTGATGCAGAGCGCGGCCAGCACCAGGGCCAGCACGGCGACGACCTTGGCGTCCATGGCGTGGGCGGGAGGGCGCGCCGGAGGCTGCAGAGCTGGGCAGCAAGAGGACACCGAGGTGGACGGAGAGTGAAAGTGCGGCAGCTAGAGGCGCGCGCTGGGCGCTTTAGAGCCGAAAACCAGGCGGGGCGGGGCTCGTCAAGGGGCGTGTCTGAAGTGTGGCTGGGGTCTCTGACGCGCATCCCCTGCGGAGCAGCCGCCCTTCCAGTCCCCTACCTACCCACCCCCTTCTTGGCGCCCTCGGCGTCCCCGGCTCCGCTGGGTGCCGAGGCCTTTGATCTTCCCAGTCCCCAACTTGGGCGGGCTCCTTGGACTACAAATGCTCCCATCCTGCAGATAGAGAAACTAAGGGGCTGTCGAAATCGAAAGCTGTCAAGTAAGGACCAGAGGCGAAACTGTGTTCCAGGCGCGAGGTTCTGTTGCGCCGCACCCAAAAAAGTTGCCAGAGAACCCTTTCTTTGGTGCCAGGACCTCAAACTGACCCACCTCTCTCCCAGGGTGTCTGTGCCGCAGGCGACAGCTAGGCTTAAGGGCAACGCGGAGCAACCTACAGTTAGAATAACTTGGACTCCCAGCCAAAGTCTCACTACAGTCACCCCCGGGAAGATGCATTCTAACGTAGGGCTGTGCTG (double strand) [Cxcl12 promoter 739 bp PCR fragment]”: the binding result was “binds”.
